Where a name gives a salt, the structure may show the parent alone. Read-outs that look alike come from different tables or passages of the source. About 95 (3%) of roughly 3,300 compounds showed an effect of 50% or more. This is one part of the list. Peptide text beside a SMILES is read from it.
Test system: HCoV-229E
Design: species or system Huh-7; HTS, protection from HCoV-229E induced cell death, luminescent cell viability (CellCounting-Lite 2.0), inhibition rate
Conditions: 24 h post infection, 1 h compound pre-incubation, 10 µM, inhibitor

Row | Compound | 229E Inhibition rate | 229E Inhibition rate (229E Inhibition rate, 24 h)
1 | O=P(O)(O)OC[C@H]1OC(O)(COP(=O)(O)O)[C@@H](O)[C@@H]1O (some centres unmarked) [Fosfructose (trisodium)] | 8.8% | 
2 | COc1cc(C[C@@H](CO)[C@H](CO)Cc2ccc(O)c(OC)c2)ccc1O [Secoisolariciresinol] |  | 21.7%
3 | CC(C)=C[C@@H]1CO[C@]23C[C@]4(CO2)[C@H](CC[C@@H]2[C@@]5(C)CC[C@H](O[C@@H]6OC[C@H](O)[C@H](O[C@@H]7O[C@H](COS(=O)(=O)O)[C@@H](O)[C@H](O)[C@H]7O)[C@H]6O[C@@H]6O[C@@H](CO)[C@H](O)[C@H]6O)C(C)(C)[C@@H]5CC[C@]24C)[C@H]3[C@@]1(C)O [Bacopaside I] | 22.9% | 
4 | CC(C)c1cccc(=O)c(O)c1 [Hinokitiol] | 31% | 
5 | C=CCc1ccc(O)c(-c2cc(CC=C)ccc2O)c1 [Magnolol] | 36.2% | 
6 | CC(C)=CCc1c(O)c(CC=C(C)C)c2oc3c(O)cccc3c(=O)c2c1O [8-Deoxygartanin] | 0% | 
7 | COc1ccc(-c2oc3c(CC=C(C)C)c(O[C@@H]4O[C@H](CO)[C@@H](O)[C@H](O)[C@H]4O)cc(O)c3c(=O)c2O)cc1 [Icariside I] | 7.4% | 
8 | O=C(O)/C=C/C(=O)O [Fumaric acid] | 7.3% | 
9 | O=Cc1ccc(O)cc1O [2,4-Dihydroxybenzaldehyde] | 19.8% | 
10 | CCCCOC(=O)c1ccccc1C(=O)OCCCC [Dibutyl phthalate] | 7.2% | 
11 | CC(C)=CCC[C@](C)(O[C@@H]1O[C@H](CO)[C@@H](O)[C@H](O)[C@H]1O)[C@H]1CC[C@]2(C)[C@@H]1[C@H](O)C[C@@H]1[C@@]3(C)CC[C@H](O)C(C)(C)[C@@H]3CC[C@]12C [Ginsenoside C-K] | 9.7% | 
12 | CCCCCCCCCCCCCC(=O)OC[C@H](COP(=O)(O)OCCN)OC(=O)CCCCCCCCCCCCC [(2R)-3-(((2-Aminoethoxy)(hydroxy)phosphoryl)oxy)propane-1,2-diyl ditetradecanoate] | 20% | 
13 | O=C1O[C@H]([C@@H](O)CO)C(O)=C1O [L-Ascorbic acid (sodium salt)] |  | 18.5%
14 | C=C(C)C(=O)O[C@H]1[C@@H]2[C@H](C)C(=O)O[C@@H]2C[C@@H](C)[C@@H]2C=CC(=O)[C@]21C [Arnicolide D] | 12.8% | 
15 | NCC(=O)CCC(=O)O [5-Aminolevulinic acid (hydrochloride)] | 10.5% | 
16 | C=C1C(=O)O[C@@H]2[C@H]3C(CO)=CC(=O)C3=C(C)C[C@H](OC(=O)Cc3ccc(O)cc3)[C@@H]12 [Lactupicrin] | 4.8% | 
17 | CC(=O)OC(C)(C)C1CC=C(C)CC1 (stereo not drawn) [α-Terpinyl acetate] | 24.1% | 
18 | C[C@@H]1O[C@@H](OC[C@H]2O[C@@H](OCCc3ccc(O)c(O)c3)[C@H](O)[C@@H](OC(=O)/C=C/c3ccc(O)c(O)c3)[C@@H]2O)[C@H](O)[C@H](O)[C@H]1O [Forsythoside I] |  | 10.1%
19 | CCc1ccc(C=O)cc1 [4-Ethylbenzaldehyde] | 11.5% | 

Row | Compound | 229E Inhibition rate | 229E Inhibition rate (229E Inhibition rate, 24 h)
20 | c1c2c(cc3c1OCO3)-c1cc3ccc4c(c3c[n+]1CC2)OCO4 [Coptisine (chloride)] |  | 32%
21 | COc1c2ccoc2cc2oc(C)cc(=O)c12 [Visnagin] | 24.9% | 
22 | Oc1cccnc1 [3-Hydroxypyridine] | 4.4% | 
23 | O=c1cc(-c2ccc(O)cc2)oc2cc(O)c([C@@H]3O[C@H](CO)[C@@H](O)[C@H](O)[C@H]3O[C@@H]3OC[C@H](O)[C@H](O)[C@H]3O)c(O)c12 [Isovitexin 2''-O-arabinoside] | 22.1% | 
24 | O=C(/C=C\c1ccc(O)c(O)c1)N[C@@H](Cc1ccc(O)c(O)c1)C(=O)O [Clovamide] | 12.6% | 
25 | O=c1oc2cc(O)ccc2c2ccccc12 [Urolithin B] | 12.4% | 
26 | NCCS [Cysteamine (hydrochloride)] | 17.8% | 
27 | CC1=C(O)C(=O)C(C)O1 (centres unmarked) [Furaneol] | 17.8% | 
28 | CC1(C)[C@@H](O)CC[C@]2(C)[C@H]3C(=O)C=C4[C@@H]5C[C@@](C)(C(=O)O)CC[C@]5(C)CC[C@@]4(C)[C@]3(C)CC[C@@H]12 [18β-Glycyrrhetinic acid] | 16.6% | 
29 | C[C@]12CCC(=O)C=C1C=C[C@@H]1[C@@H]2CC[C@@]2(C)[C@H]1CC[C@@]21CCC(=O)O1 [Canrenone] | 24.5% | 
30 | COC(=O)[C@H]1[C@H]2C[C@@H]3c4[nH]c5ccccc5c4CCN3C[C@H]2C[C@@H](OC(=O)c2cc(OC)c(OC)c(OC)c2)[C@@H]1OC [deserpidine] | 10.5% | 
31 | Cc1nnc(SCC2=C(C(=O)O)N3C(=O)[C@@H](NC(=O)Cn4cc(Cl)c(=O)c(Cl)c4)[C@H]3SC2)s1 [Cefazedone] | 46.4% | 
32 | C[C@@H]1O[C@@H](OC[C@H]2O[C@@H](Oc3cc(O)c4c(c3)O[C@H](c3ccc(O)c(O)c3)CC4=O)[C@H](O)[C@@H](O)[C@@H]2O)[C@H](O)[C@H](O)[C@H]1O [Eriocitrin] | 11.5% | 
33 | COc1c(-c2ccccc2)oc2ccccc2c1=O [3-Methoxyflavone] | 11.8% | 
34 | C[C@@H]1O[C@@H](O[C@H]2[C@H](O[C@H]3CC[C@@]4(C)[C@@H](CC[C@]5(C)[C@@H]4CC=C4[C@@H]6CC(C)(C)CC[C@]6(C(=O)O[C@@H]6O[C@H](CO[C@@H]7O[C@H](CO)[C@@H](O)[C@H](O)[C@H]7O)[C@@H](O)[C@H](O)[C@H]6O)CC[C@]45C)[C@]3(C)CO)OC[C@H](O)[C@@H]2O)[C@H](O)[C@H](O[C@@H]2O[C@H](CO)[C@@H](O[C@@H]3O[C@H](CO)[C@@H](O)[C@H](O)[C@H]3O)[C@H](O)[C@H]2O)[C@H]1O [Macranthoidin B] | 13.2% | 
35 | O=c1ccc2cc3ccoc3c(O)c2o1 [Xanthotoxol] | 35.1% | 
36 | COC(=O)c1ccc(O)c(O)c1 [Methyl 3,4-dihydroxybenzoate] | 27.5% | 
37 | C=C(C)[C@@H]1CC[C@]2(C)CC[C@]3(C)[C@H](CC[C@@H]4[C@@]5(C)CC[C@H](O)C(C)(C)[C@@H]5CC[C@]43C)[C@@H]12 [Lupeol] | 5.5% | 
38 | C=C1CCC[C@]2(C)C[C@@H]3OC(=O)C(C)=C3C[C@@H]12 [Atractylenolide II] | 11.9% | 

Row | Compound | 229E Inhibition rate | 229E Inhibition rate (229E Inhibition rate, 24 h)
39 | C[C@H]1O[C@@H](O[C@H]2[C@@H](O)C[C@H](O[C@H]3[C@@H](O)C[C@H](O[C@H]4CC[C@@]5(C)[C@H](CC[C@@H]6[C@@H]5CC[C@]5(C)[C@@H](C7=CC(=O)OC7)CC[C@]65O)C4)O[C@@H]3C)O[C@@H]2C)C[C@H](O)[C@@H]1O [Digitoxin] | 25% | 
40 | Cn1c(Cc2ccccc2)nc(=O)c2ccccc21 [Arborine] | 9.1% | 
41 | Cc1cc2nc3c(=O)[nH]c(=O)nc-3n(C[C@H](O)[C@H](O)[C@H](O)COP(=O)(O)OP(=O)(O)OC[C@H]3O[C@@H](n4cnc5c(N)ncnc54)[C@H](O)[C@@H]3O)c2cc1C [Flavin adenine dinucleotide (disodium salt)] | 22.7% | 
42 | COc1cc2c(cc1O)CC[n+]1cc3c(OC)c(OC)ccc3cc1-2 [Jatrorrhizine (chloride)] |  | 16%
43 | CC(=O)c1ccc2ccccc2c1 [2-Acetonaphthone] | 17.5% | 
44 | Cc1ccccc1C(=O)NCC(=O)O [2-(2-Methylbenzamido)acetic acid] | 54.8% | 
45 | C=C(C(=O)O)[C@H]1CC[C@H](C)[C@@H]2CC(=O)C(C)=C2C1 [Rupestonic acid] | 12.5% | 
46 | CCC(CC)C(=O)O [2-Ethylbutyric acid] | 24.1% | 
47 | C=C[C@@](C)(/C=C/c1ccc(O)cc1)CCC=C(C)C [Bakuchiol] | 18.3% | 
48 | C[C@@H](O)C(=O)O [D-(-)-Lactic acid (sodium)] | 8.1% | 
49 | CC(C)[C@@H]1CC[C@@H](C)CC1=O [Menthone] | 20.2% | 
50 | COc1cc(-c2c3c(c(O)c4cc5c(cc24)OCO5)COC3=O)cc(OC)c1OC [Tetradehydropodophyllotoxin] | 21% | 
51 | CC1(C)CC[C@]2(C(=O)O)CC[C@]3(C)C(=CC[C@@H]4[C@@]5(C)C[C@@H](O)[C@H](O)[C@@](C)(CO)[C@@H]5CC[C@]43C)[C@@H]2C1 [Arjunolic acid] | 21.2% | 
52 | CC(C(=O)O)C(O)(CC(=O)O)C(=O)O (centres unmarked) [2-Methylcitric acid] | 13.8% | 
53 | CO[C@@H]1[C@@H](OC)[C@H](C)[C@@](O)(CC(=O)O)O[C@H]1[C@H](C)[C@H]1O[C@@]2(CC[C@@](C)([C@H]3CC[C@@](C)([C@@H]4O[C@@H]([C@H]5O[C@](C)(O)[C@H](C)C[C@@H]5C)C[C@@H]4O[C@@H]4C[C@H](OC)[C@@H](OC)[C@H](C)O4)O3)O2)C[C@H](O)[C@H]1C [Maduramicin (ammonium)] | 3.4% | 
54 | NCCCCN [1,4-Diaminobutane (dihydrochloride)] | 38% | 
55 | COc1cc(-c2oc3cc(O)cc(O)c3c(=O)c2O[C@@H]2O[C@H](CO[C@@H]3O[C@@H](C)[C@H](O)[C@@H](O)[C@H]3O)[C@@H](O)[C@H](O)[C@H]2O[C@@H]2O[C@@H](C)[C@H](O)[C@@H](O)[C@H]2O)ccc1O [Typhaneoside] | 16.9% | 
56 | CC(C)[C@@H]1NC(=O)CNC(=O)[C@H](C)NC(=O)[C@H](Cc2c[nH]c3ccccc23)NC(=O)[C@H](C)NC1=O [Segetalin B] (cyclo(AGVAW)) | 9.2% | 

Random excerpt: two compounds from above
Row | Compound | 229E Inhibition rate | 229E Inhibition rate (229E Inhibition rate, 24 h)
38 | C=C1CCC[C@]2(C)C[C@@H]3OC(=O)C(C)=C3C[C@@H]12 [Atractylenolide II] | 11.9% | 
50 | COc1cc(-c2c3c(c(O)c4cc5c(cc24)OCO5)COC3=O)cc(OC)c1OC [Tetradehydropodophyllotoxin] | 21% | 

Entries of single compounds, looked up by structure.
Cn1c(Cc2ccccc2)nc(=O)c2ccccc21 [Arborine] in the list: 229E Inhibition rate: 9.1%
CC(C)[C@@H]1NC(=O)CNC(=O)[C@H](C)NC(=O)[C@H](Cc2c[nH]c3ccccc23)NC(=O)[C@H](C)NC1=O [Segetalin B] (cyclo(AGVAW)) in the list: 229E Inhibition rate: 9.2%

Reference: article PMC12431657, “Discovery and mechanistic insights of dibenzoylmethane as a broad spectrum inhibitor of coronavirus” (PLOS Pathogens, 2025)
